These are yes or no findings as the source states them, for the method shown. In cells and extracts the contact can be indirect. Some binding calls cover weakened binding; strength is not graded here.
Legend:
[1] = target: UTX (ubiquitously transcribed tetratricopeptide repeat on chromosome X), overexpressed (human) (UniProt O15550); assay: co-IP; HEK293T cells transfected with the indicated plasmids (overexpression); IP by anti-UTX or anti-HA; lysates incubated with antibodies and Dynabeads Protein G overnight at 4 °C; washed with pre-lysis buffer with additional 50 mM NaCl; immunoblotting
[2] = target: UTX, endogenous in HK-2 cells (human (endogenous in HK-2)) (UniProt O15550); assay: co-IP; endogenous proteins in HK-2 cells (control cells), with or without PA treatment; anti-PHGDH IP in Fig. 8f; Dynabeads Protein G overnight at 4 °C; immunoblotting

By UniProt entry, the sequences of proteins in these tests, tags left out.
UniProt O15550: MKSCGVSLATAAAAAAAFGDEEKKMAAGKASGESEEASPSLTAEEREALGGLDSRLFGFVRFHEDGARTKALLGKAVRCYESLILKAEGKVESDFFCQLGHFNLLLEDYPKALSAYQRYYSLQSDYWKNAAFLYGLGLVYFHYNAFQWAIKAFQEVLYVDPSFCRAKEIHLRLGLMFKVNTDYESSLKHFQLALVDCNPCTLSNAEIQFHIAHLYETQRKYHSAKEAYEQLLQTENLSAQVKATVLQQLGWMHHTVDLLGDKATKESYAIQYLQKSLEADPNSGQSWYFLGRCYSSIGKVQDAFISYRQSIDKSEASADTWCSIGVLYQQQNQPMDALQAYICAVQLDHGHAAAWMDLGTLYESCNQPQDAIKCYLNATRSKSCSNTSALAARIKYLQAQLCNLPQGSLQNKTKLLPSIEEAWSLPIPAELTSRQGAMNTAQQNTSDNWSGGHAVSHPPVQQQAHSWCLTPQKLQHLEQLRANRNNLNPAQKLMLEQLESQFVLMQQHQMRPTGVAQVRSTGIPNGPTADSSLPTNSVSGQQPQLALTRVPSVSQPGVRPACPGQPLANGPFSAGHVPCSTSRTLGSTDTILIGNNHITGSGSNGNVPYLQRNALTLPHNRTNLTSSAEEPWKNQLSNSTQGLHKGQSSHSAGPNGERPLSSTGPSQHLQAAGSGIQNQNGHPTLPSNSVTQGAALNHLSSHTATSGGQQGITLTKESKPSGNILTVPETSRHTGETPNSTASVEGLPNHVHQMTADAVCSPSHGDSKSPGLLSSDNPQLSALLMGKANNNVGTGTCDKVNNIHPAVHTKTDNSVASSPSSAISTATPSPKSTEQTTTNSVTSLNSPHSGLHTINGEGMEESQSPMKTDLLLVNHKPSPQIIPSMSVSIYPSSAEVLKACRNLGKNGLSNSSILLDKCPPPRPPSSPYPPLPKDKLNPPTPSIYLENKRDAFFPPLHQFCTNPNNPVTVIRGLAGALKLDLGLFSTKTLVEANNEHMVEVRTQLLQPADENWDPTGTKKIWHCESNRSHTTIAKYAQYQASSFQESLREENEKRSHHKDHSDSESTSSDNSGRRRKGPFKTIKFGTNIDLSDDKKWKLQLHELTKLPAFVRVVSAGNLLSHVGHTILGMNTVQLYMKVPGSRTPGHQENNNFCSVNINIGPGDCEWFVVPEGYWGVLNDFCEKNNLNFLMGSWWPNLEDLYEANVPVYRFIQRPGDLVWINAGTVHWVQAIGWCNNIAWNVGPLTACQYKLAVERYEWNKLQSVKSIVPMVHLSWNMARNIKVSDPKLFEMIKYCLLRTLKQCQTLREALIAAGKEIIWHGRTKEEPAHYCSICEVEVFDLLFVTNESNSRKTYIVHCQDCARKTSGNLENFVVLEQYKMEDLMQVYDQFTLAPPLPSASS
UniProt Q9Y508: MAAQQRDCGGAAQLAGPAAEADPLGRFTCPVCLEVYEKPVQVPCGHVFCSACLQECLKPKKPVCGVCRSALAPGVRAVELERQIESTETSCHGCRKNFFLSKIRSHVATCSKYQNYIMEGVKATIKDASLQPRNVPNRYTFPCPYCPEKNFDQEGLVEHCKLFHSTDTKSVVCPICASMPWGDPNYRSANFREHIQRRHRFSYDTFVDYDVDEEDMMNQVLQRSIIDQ

binding [1]	binding [2]	Substance
binds		HA-tagged RNF114 (from UniProt Q9Y508 1-228)
	binds	RNF114, endogenous in HK-2 cells (from UniProt Q9Y508 1-228)

Source: article PMC9253056
